The results in this text go back to paper PMC10912431.

In the assay the target is T1, glutathione S-transferase mu 3 (GSTM3), Flag-labelled (UniProt P21266).
T1 sequence: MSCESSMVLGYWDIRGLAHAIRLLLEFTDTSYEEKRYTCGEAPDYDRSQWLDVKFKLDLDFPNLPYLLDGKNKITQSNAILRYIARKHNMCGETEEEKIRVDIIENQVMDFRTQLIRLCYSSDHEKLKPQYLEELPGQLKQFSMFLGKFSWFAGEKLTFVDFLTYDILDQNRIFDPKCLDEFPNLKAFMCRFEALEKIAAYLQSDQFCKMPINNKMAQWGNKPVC
The experiment in a line: co-IP; cells transfected with Flag-labelled plasmids, lysed in IP cell lysis buffer at 4 °C; anti-Flag antibody overnight at 4 °C, protein A/G agarose beads 4 h, three PBS washes, western blot. For orientation: A western blot detects proteins with antibodies after separation by electrophoresis.

Results are given in words; binding and its absence hold for the method and conditions named. In cells and extracts the contact can be indirect. Binding calls can cover weak binding; strength is not graded here. Sequences can lack the tags named with a protein.

For the substance “glutathione peroxidase 4 (GPX4) (human (endogenous in NPC cell lines))”, the binding entry is listed as “binds”.
